In doi:10.1101/2022.03.23.485444:
No constants are given. Whether binding was seen depends on the method and setting. Some results given as binding are weak or reduced against the parent protein; the word gives no strength. Tags and fused reporters may be left off the sequences shown. Values belong to the binder of their own block, whether it stands above or below them.

Columns and labels:
Assay in all cases: two-hybrid
[1] = target: T1, ZYP1B-BD (full length ZYP1B) (Arabidopsis thaliana) (UniProt P61430)
T1 sequence: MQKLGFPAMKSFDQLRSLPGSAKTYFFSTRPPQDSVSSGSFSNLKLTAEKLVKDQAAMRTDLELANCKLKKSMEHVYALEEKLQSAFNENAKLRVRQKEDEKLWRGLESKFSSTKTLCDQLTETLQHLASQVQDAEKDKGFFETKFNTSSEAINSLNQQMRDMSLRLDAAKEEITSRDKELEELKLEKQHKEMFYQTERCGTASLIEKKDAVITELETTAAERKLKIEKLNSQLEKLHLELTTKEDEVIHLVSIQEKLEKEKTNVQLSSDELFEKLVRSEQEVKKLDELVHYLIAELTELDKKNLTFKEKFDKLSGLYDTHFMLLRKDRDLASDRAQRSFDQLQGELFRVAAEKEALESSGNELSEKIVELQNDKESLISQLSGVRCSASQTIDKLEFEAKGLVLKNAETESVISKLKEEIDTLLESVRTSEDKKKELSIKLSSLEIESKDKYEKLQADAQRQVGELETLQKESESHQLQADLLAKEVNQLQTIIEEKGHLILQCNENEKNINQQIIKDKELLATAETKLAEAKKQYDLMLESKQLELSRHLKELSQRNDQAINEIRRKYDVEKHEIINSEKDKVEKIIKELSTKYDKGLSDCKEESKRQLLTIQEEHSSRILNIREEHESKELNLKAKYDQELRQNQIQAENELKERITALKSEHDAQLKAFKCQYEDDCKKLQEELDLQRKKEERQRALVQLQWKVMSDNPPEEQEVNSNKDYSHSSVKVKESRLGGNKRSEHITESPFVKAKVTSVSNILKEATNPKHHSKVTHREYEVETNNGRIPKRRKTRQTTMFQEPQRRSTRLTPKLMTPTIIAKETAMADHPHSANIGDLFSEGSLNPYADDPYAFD

[2] = target: T2, ZYP1B-BD (full length ZYP1B) (Arabidopsis thaliana), P61430; conditions: remark: other sources report otherwise
T2 chain: T1 sequence

[3] = target: T3, ZYP1B^601-856-BD (Arabidopsis thaliana) (UniProt P61430)
T3 sequence: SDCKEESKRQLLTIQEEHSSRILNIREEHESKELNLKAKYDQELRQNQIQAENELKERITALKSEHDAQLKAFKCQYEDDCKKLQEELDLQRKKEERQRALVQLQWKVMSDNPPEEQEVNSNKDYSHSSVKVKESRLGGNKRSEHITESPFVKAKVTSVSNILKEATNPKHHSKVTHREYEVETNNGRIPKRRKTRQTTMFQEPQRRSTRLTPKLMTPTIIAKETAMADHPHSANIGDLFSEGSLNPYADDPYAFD

[4] = target: T4, ZYP1B^726-834-BD (Arabidopsis thaliana) (UniProt P61430)
T4 sequence: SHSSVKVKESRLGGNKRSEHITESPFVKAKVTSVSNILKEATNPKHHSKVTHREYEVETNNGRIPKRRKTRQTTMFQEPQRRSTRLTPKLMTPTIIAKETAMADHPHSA

[5] = target: T5, ZYP1B^661-725-BD (Arabidopsis thaliana) (UniProt P61430)
T5 sequence: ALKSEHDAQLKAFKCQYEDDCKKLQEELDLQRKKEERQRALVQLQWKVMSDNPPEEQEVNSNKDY

[6] = target: T6, ZYP1B^601-725-BD (Arabidopsis thaliana) (UniProt P61430)
T6 sequence: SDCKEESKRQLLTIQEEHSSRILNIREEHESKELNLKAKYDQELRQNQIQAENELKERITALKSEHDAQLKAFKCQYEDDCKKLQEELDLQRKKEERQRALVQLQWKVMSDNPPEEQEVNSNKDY

binding [1]: no binding
B1: PCH2^131-467, AD fusion (domain or fragment, UniProt Q8H1F9 131-467)
chain: TFQLIEEGPCEDLCADGQPASFNEWILPAKEFDGLWESLIYESGLKQRLLRYAASALLFTQKGVNPNLVSWNRIILLHGPPGTGKTSLCKALAQKLSIRCNSRYPHCQLIEVNAHSLFSKWFSESGKLVAKLFQKIQEMVEEDGNLVFVLIDEVESLAAARKAALSGSEPSDSIRVVNALLTQMDKLKSAPNVIILTTSNITTAIDVAFVDRADIKAYVGPPTLHVRYEILRSCVEELISKGIISSFQGCDGLSIPSFSSLKEKLSESEVHDTNTVPWFCKQLIEAAKGCEGLSGRSLRKLPFLAHAALADPYSHDPSNFLCTMIETAKREKSEQPE

binding [2]: no binding
B2: PCH2 (full length), AD fusion, Q8H1F9 1-467 (protein)
chain: MVEDPIPLPNASMEVSYQNPIEAATIPVQIAVAEPVATPNPPPCLHENKFLVSVEVCLKPSSTARLEDVQRAVERMLENRSMSYADGLVLIPADDLFLVDNVQRICICDTEEWVKNNDVLLFWQVKPVVHTFQLIEEGPCEDLCADGQPASFNEWILPAKEFDGLWESLIYESGLKQRLLRYAASALLFTQKGVNPNLVSWNRIILLHGPPGTGKTSLCKALAQKLSIRCNSRYPHCQLIEVNAHSLFSKWFSESGKLVAKLFQKIQEMVEEDGNLVFVLIDEVESLAAARKAALSGSEPSDSIRVVNALLTQMDKLKSAPNVIILTTSNITTAIDVAFVDRADIKAYVGPPTLHVRYEILRSCVEELISKGIISSFQGCDGLSIPSFSSLKEKLSESEVHDTNTVPWFCKQLIEAAKGCEGLSGRSLRKLPFLAHAALADPYSHDPSNFLCTMIETAKREKSEQPE

binding [3]: binds | binding [4]: no binding | binding [1]: no binding | binding [5]: binds | binding [6]: binds
B3: PCH2^1-130, AD fusion (domain or fragment, UniProt Q8H1F9 1-130)
chain: MVEDPIPLPNASMEVSYQNPIEAATIPVQIAVAEPVATPNPPPCLHENKFLVSVEVCLKPSSTARLEDVQRAVERMLENRSMSYADGLVLIPADDLFLVDNVQRICICDTEEWVKNNDVLLFWQVKPVVH
